Test results taken from patent US20160108100A1.
These are yes or no findings as the source states them, for the method shown. Some binding calls cover weakened binding; strength is not graded here. Sequences can lack the tags named with a protein.

Amino acid sequences for entries named in this document (tags omitted).
UniProt P07814: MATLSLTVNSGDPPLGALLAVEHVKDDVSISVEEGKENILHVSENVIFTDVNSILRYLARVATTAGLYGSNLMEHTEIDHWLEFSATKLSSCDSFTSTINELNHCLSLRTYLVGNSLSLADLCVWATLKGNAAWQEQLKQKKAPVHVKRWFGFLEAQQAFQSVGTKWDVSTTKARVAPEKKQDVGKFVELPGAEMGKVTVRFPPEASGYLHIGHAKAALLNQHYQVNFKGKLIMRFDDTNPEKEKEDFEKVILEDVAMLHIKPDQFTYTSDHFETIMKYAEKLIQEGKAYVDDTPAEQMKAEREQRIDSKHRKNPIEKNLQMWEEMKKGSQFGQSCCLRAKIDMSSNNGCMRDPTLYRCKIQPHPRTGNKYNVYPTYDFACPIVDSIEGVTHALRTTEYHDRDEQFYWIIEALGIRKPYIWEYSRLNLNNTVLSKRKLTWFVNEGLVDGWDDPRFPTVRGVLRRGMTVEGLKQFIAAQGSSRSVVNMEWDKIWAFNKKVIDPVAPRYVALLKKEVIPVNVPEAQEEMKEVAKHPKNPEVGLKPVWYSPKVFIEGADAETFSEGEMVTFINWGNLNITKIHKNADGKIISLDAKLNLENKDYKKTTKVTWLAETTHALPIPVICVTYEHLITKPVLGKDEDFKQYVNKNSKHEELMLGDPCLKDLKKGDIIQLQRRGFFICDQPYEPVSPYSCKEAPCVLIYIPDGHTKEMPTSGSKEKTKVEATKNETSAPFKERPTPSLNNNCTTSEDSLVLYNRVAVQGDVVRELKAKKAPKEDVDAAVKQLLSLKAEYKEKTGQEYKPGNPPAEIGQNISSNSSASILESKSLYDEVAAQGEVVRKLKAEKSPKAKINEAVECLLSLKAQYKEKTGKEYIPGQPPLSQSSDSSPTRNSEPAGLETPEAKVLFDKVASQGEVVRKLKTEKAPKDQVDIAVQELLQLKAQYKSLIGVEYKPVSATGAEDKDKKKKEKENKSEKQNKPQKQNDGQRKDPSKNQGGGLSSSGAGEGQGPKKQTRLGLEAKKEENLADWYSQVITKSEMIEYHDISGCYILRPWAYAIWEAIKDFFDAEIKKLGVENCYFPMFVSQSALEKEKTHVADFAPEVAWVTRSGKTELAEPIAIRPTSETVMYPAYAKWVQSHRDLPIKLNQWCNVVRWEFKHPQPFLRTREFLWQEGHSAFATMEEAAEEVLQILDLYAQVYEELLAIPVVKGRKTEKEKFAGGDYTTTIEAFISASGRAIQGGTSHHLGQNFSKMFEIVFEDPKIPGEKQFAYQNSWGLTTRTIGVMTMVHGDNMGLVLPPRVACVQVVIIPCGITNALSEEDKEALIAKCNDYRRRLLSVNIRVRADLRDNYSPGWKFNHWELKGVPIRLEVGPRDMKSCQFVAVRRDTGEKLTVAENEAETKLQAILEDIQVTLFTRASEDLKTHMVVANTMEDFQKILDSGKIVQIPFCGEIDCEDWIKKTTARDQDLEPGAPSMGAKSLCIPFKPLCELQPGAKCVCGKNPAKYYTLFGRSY

Columns and labels:
[1] = molecular target: Glutamyl-Prolyl tRNA synthetase (EPRS) (human) (UniProt P07814); test: anti-FLAG immunoprecipitation from cell extracts, anti-EPRS western blot
[2] = molecular target: Glutamyl-Prolyl tRNA synthetase (EPRS) (human) (UniProt P07814); test: immunoprecipitation with flagged EN1 as bait, anti-EPRS detection
[3] = molecular target: Glutamyl-Prolyl tRNA synthetase (EPRS) (human) (UniProt P07814); test: anti-FLAG immunoprecipitation, anti-EPRS western blot

Measured: binding

B1: Full length EN1 with FLAG tag (protein, human)
chain: MEEQQPEPKSQRDSALGAAAAATPGGLSLSLSPGASGSSGSGSDGDSVPVSPQPAPPSPPAAPCLPPLAHHPHLPPHPPPPPPQHLAAPAHQPQPAAQLHRTTNFFIDNILRPDFGCKKEQPPPQLLVAAAARGGAGGGGRVERDRGQTAAGRDPVHPLGTRAPGAASLLCAPDANCGPPDGSQPAAAGAGASKAGNPAAAAAAAAAAVAAAAAAAAAKPSDTGGGGSGGGAGSPGAQGTKYPEHGNPAILLMGSANGGPVVKTDSQQPLVWPAWVYCTRYSDRPSSGPRTRKLKKKKNEKEDKRPRTAFTAEQLQRLKAEFQANRYITEQRRQTLAQELSLNESQIKIWFQNKRAKIKKATGIKNGLALHLMAQGLYNHSTTTVQDKDESEDYKDDDDK
binds: [1] | [2] | [3]
